PubChem BioAssay AID493246, Drosophila RNAi Screening Center – 2011
Aim: 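Identify essential fly genes by loss of cell viability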 (primary screen). System: Drosophila Kc and S2R+ cells. Knock-down reagent: long dsRNA against Drosophila genes. Detection: 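Cell number per well after knock-down, printed as raw plate values; calls were based on per-plate z-scores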. Direction: Kc cell number and S2R+ cell number: higher = more cells remaining. Rule for the call: 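Active when the per-plate z-score of cell number is 3 or more in the direction of fewer cells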.
In all, the deposit lists about 21,000 reagents; this is an unselected part of those with a known target gene and a result. In the full data, 429 (2%) are marked active. 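Values are raw and not normalised between plates; calls rest on per-plate z-scores that were not deposited.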 Entries without a mark were called inactive. A plus sign joins genes that one reagent is predicted to hit. Not given: the amount of reagent, the time to read-out.

| target | dsRNA | Kc cell number, rep 1 | Kc cell number, rep 2 | S2R+ cell number, rep 1 | S2R+ cell number, rep 2 |
| --- | --- | --- | --- | --- | --- |
| CG7031 | DRSC16178 | 9.16e5 (active) | 1.01e6 | 4.49e5 | 5.32e5 |
| CG34345 | DRSC02126 | 1.51e6 | 1.42e6 | 1.11e6 | 1.30e6 |
| CG3808 | DRSC10377 | 1.64e6 | 1.78e6 | 1.33e6 | 1.49e6 |
| rgn | DRSC11609 | 1.62e6 | 1.62e6 | 1.51e6 | 1.75e6 |
| Octbeta2R | DRSC15350 | 1.42e6 | 1.48e6 | 1.40e6 | 1.45e6 |
| Octbeta2R | DRSC16165 | 1.41e6 | 1.44e6 | 1.31e6 | 1.39e6 |
| CG18234 | DRSC10309 | 1.38e6 | 1.50e6 | 1.31e6 | 1.36e6 |
| l(3)L1231 | DRSC16323 | 1.44e6 | 1.47e6 | 1.18e6 | 1.16e6 |
| Burs | DRSC14595 | 1.27e6 | 1.30e6 | 1.09e6 | 1.14e6 |
| CG14329 | DRSC14808 | 1.55e6 | 1.48e6 | 1.18e6 | 1.25e6 |
| CG32206 | DRSC09602 | 1.42e6 | 1.42e6 | 9.67e5 | 1.11e6 |
| CG32206 | DRSC10094 | 1.41e6 | 1.51e6 | 1.29e6 | 1.34e6 |
| CG32206 | DRSC10095 | 1.37e6 | 1.46e6 | 1.30e6 | 1.33e6 |
| CG32206 | DRSC10096 | 1.41e6 | 1.42e6 | 1.33e6 | 1.38e6 |
| CG32206 | DRSC11080 | 1.43e6 | 1.46e6 | 1.25e6 | 1.37e6 |
| Trxr1 | DRSC18668 | 5.96e5 | – | 9.00e5 | – |
| ergic53 | DRSC11389 | 1.45e6 | 1.39e6 | 1.09e6 | 1.20e6 |
| Alg3 | DRSC04700 | 1.23e6 | 1.28e6 | 1.06e6 | 1.18e6 |
| kra | DRSC12320 | 1.44e6 | 1.62e6 | 1.16e6 | 1.29e6 |
| Ald1 | DRSC14109 | 5.14e5 | – | 6.51e5 | – |
| CCT6 | DRSC20095 | 5.15e5 | – | 8.97e5 | – |
| Tssk | DRSC14784 | 1.25e6 | 1.27e6 | 1.13e6 | 1.24e6 |
| blo | DRSC05937 | 1.35e6 | 1.43e6 | 1.04e6 | 1.04e6 |
| CG5653 | DRSC10534 | 1.43e6 | 1.51e6 | 1.11e6 | 1.17e6 |
| Tao | DRSC19573 | 1.42e6 | 1.52e6 | 1.00e6 | 1.10e6 |
| Tao | DRSC19574 | 1.53e6 | 1.50e6 | 1.01e6 | 1.21e6 |
| CG14286 | DRSC14767 | 1.39e6 | 1.39e6 | 1.02e6 | 1.14e6 |
| roq | DRSC10227 | 1.60e6 | 1.58e6 | 1.45e6 | 1.53e6 |
| Syn | DRSC16876 | 1.46e6 | 1.56e6 | 1.15e6 | 1.29e6 |
| PCID2 | DRSC10822 | 1.48e6 | 1.55e6 | 1.32e6 | 1.09e6 |
| Gr85a | DRSC12760 | 1.76e6 | 1.69e6 | 1.22e6 | 1.36e6 |
| para | DRSC19141 | 1.24e6 | 1.39e6 | 1.11e6 | 1.19e6 |
| para | DRSC20360 | 1.57e6 | 1.54e6 | 1.08e6 | 1.21e6 |
| gammaCOP | DRSC16955 | 1.53e6 | 1.58e6 | 7.40e5 | 8.66e5 |
| CG17258 | DRSC00495 | 1.72e6 | 1.73e6 | 1.22e6 | 1.46e6 |
| HDAC11 | DRSC14280 | 1.48e6 | 1.40e6 | 1.03e6 | 1.05e6 |
| Arglu1 | DRSC02909 | 1.53e6 | 1.56e6 | 1.34e6 | 1.49e6 |
| AstCC | DRSC02404 | 1.55e6 | 1.59e6 | 1.18e6 | 1.34e6 |

Limited to “S2R+ cell number, rep 1” (7 entries from above):
CG32206 [DRSC09602]: 9.67e5
CG32206 [DRSC10094]: 1.29e6
CG32206 [DRSC10095]: 1.30e6
CG32206 [DRSC10096]: 1.33e6
CG32206 [DRSC11080]: 1.25e6
Trxr1 [DRSC18668]: 9.00e5
ergic53 [DRSC11389]: 1.09e6

Next records follow:
| target | dsRNA | Kc cell number, rep 1 | Kc cell number, rep 2 | S2R+ cell number, rep 1 | S2R+ cell number, rep 2 |
| --- | --- | --- | --- | --- | --- |
| Srg2 + CG42826 | DRSC10681 | 1.22e6 | 1.29e6 | 1.20e6 | 1.06e6 |
| Srg2 + CG42826 | DRSC10682 | 1.42e6 | 1.82e6 | 1.35e6 | 1.38e6 |
| sha | DRSC06331 | 1.51e6 | 1.52e6 | 1.13e6 | 1.26e6 |
| CG8032 | DRSC16365 | 1.39e6 | 1.51e6 | 1.20e6 | 1.29e6 |
| CG17549 | DRSC02625 | 1.44e6 | 1.49e6 | 1.38e6 | 1.41e6 |
| Gbs-76A | DRSC11081 | 1.65e6 | 1.64e6 | 1.51e6 | 1.60e6 |
| CG17746 | DRSC08521 | 1.35e6 | 1.37e6 | 1.25e6 | 1.16e6 |
| CG13978 | DRSC14720 | 1.54e6 | 1.55e6 | 1.10e6 | 1.18e6 |
| CG31544 (retired record) | DRSC12466 | 1.59e6 | 1.55e6 | 1.09e6 | 1.35e6 |
| CG12811 | DRSC14549 | 1.73e6 | 1.73e6 | 1.36e6 | 1.56e6 |
| CG13101 | DRSC02201 | 1.31e6 | 1.45e6 | 1.12e6 | 1.14e6 |
| mth | DRSC08725 | 1.49e6 | 1.56e6 | 1.36e6 | 1.40e6 |
| CG30060 | DRSC05419 | 1.43e6 | 1.38e6 | 9.73e5 | 1.09e6 |
| mRpS17 | DRSC04463 | 1.48e6 | 1.58e6 | 1.28e6 | 1.28e6 |
| CG10366 | DRSC02046 | 1.41e6 | 1.46e6 | 1.42e6 | 1.42e6 |
| CG6357 | DRSC06979 | 1.40e6 | 1.47e6 | 1.08e6 | 1.17e6 |
| CR32745 | DRSC17442 | 1.12e6 | 1.38e6 | 1.06e6 | 1.06e6 |
| TM9SF2 | DRSC03197 | 1.08e6 | 1.24e6 | 9.79e5 | 9.29e5 |
| CG14840 | DRSC14964 | 1.25e6 | 1.28e6 | 1.21e6 | 1.41e6 |
| CycA | DRSC09132 | 1.11e6 | 1.28e6 | 8.67e5 | 1.01e6 |
| CycA | DRSC11123 | 1.20e6 | 1.38e6 | 1.06e6 | 9.73e5 |
